No constants are given. Whether binding was seen depends on the method and setting. Some entries that bind do so weakly or less than the wild type.
Molecular target: Siglec-5 (endogenous, activated human T cells) (human (endogenous in activated T cells from adult PBMCs)) (UniProt O15389)
Assay: non-reducing SDS-PAGE and western blot; CD3+ T cells from adult PBMCs stimulated with plate bound anti-CD3, anti-CD28 and IL-2 for up to 3 days; lysed and boiled in non-reducing SDS sample buffer with 10 mM iodoacetamide

binding: binds
B1: Siglec-5 (endogenous, activated human T cells) (receptor, UniProt O15389 17-551)
chain: EKPVYELQVQKSVTVQEGLCVLVPCSFSYPWRSWYSSPPLYVYWFRDGEIPYYAEVVATNNPDRRVKPETQGRFRLLGDVQKKNCSLSIGDARMEDTGSYFFRVERGRDVKYSYQQNKLNLEVTALIEKPDIHFLEPLESGRPTRLSCSLPGSCEAGPPLTFSWTGNALSPLDPETTRSSELTLTPRPEDHGTNLTCQMKRQGAQVTTERTVQLNVSYAPQTITIFRNGIALEILQNTSYLPVLEGQALRLLCDAPSNPPAHLSWFQGSPALNATPISNTGILELRRVRSAEEGGFTCRAQHPLGFLQIFLNLSVYSLPQLLGPSCSWEAEGLHCRCSFRARPAPSLCWRLEEKPLEGNSSQGSFKVNSSSAGPWANSSLILHGGLSSDLKVSCKAWNIYGSQSGSVLLLQGRSNLGTGVVPAALGGAGVMALLCICLCLIFFLIVKARRKQAAGRPEKMDDEDPIMGTITSGSRKKPWPDSPGDQASPPGDAPPLEEQKELHYASLSFSEMKSREPKDQEAPSTTEYSEIKTSK

Source: publication PMC11590682
